In publication PMC3258255 one finds binding data, which are given here for one substance.

Amino acid sequences for entries named in this document (tags omitted).
UniProt P28482: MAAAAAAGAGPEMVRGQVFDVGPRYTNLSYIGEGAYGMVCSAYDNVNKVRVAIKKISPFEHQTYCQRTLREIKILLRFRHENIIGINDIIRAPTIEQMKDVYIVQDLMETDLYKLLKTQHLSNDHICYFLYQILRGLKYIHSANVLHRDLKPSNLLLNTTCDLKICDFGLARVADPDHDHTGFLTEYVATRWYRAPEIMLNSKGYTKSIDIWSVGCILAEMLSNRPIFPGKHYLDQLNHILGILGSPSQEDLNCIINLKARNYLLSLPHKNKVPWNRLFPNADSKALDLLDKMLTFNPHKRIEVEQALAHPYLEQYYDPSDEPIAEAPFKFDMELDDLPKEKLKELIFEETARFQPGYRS
UniProt P12270: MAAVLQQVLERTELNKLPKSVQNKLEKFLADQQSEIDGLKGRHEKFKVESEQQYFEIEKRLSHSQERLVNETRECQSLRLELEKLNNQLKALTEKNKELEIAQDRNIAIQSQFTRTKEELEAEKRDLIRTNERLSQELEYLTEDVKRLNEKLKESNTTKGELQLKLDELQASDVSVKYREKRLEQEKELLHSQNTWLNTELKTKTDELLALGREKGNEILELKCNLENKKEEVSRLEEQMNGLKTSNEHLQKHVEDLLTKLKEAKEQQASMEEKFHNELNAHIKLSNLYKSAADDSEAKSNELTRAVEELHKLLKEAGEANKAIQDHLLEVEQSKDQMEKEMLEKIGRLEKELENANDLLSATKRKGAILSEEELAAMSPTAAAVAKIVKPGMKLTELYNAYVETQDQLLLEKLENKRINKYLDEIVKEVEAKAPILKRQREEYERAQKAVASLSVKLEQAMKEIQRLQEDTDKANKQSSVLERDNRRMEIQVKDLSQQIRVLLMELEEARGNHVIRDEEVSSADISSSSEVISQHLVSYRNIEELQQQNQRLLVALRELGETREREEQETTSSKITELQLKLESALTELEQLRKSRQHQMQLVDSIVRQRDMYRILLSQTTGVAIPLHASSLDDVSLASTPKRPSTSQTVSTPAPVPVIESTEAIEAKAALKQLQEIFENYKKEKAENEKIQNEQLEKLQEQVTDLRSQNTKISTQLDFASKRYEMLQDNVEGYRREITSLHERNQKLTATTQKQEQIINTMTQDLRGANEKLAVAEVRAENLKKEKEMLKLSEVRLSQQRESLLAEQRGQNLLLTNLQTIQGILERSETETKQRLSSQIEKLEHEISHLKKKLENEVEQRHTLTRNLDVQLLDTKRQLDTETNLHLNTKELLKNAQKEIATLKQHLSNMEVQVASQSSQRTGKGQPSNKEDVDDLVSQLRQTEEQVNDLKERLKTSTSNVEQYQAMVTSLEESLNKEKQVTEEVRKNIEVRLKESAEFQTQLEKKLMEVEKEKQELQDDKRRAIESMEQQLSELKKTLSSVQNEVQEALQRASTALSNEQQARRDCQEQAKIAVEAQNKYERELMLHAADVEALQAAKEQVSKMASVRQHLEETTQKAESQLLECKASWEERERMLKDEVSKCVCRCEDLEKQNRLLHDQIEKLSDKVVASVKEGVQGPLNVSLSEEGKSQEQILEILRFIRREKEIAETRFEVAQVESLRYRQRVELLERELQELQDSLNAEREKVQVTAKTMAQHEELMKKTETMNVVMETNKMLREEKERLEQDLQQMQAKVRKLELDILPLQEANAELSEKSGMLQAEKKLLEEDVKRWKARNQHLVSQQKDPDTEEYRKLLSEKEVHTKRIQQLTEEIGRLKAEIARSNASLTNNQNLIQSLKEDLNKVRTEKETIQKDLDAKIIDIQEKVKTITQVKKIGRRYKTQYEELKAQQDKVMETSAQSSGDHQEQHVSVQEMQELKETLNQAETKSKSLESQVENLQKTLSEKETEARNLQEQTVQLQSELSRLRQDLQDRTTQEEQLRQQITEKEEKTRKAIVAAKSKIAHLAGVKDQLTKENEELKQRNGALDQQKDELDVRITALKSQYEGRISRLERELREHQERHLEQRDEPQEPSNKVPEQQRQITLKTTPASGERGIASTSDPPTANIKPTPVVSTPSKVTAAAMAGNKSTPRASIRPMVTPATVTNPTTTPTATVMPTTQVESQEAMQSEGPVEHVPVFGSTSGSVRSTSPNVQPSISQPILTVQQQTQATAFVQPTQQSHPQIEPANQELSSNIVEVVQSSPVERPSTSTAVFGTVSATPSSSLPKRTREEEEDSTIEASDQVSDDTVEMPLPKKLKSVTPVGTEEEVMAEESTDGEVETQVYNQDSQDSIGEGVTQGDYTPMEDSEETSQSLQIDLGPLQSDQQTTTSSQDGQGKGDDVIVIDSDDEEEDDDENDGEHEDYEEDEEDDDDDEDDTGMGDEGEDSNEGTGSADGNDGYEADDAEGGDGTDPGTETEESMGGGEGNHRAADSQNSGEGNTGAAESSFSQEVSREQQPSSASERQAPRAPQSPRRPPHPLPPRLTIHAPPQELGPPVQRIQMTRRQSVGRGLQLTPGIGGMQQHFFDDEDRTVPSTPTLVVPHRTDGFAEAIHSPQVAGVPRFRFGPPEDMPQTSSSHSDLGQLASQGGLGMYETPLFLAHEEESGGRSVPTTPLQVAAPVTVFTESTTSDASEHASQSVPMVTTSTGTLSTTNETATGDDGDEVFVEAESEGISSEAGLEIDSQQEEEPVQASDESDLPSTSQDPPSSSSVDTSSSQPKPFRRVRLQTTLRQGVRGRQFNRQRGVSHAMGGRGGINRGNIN

One experiment addresses HA-ERK2 (UniProt P28482). In words: co-IP; cells transfected with HA-tagged constructs; 24 hours post transfection lysed, lysates immunoprecipitated with HA-antibodies; immunoblots probed with anti-HA and anti-Tpr antibodies. A general note: A western blot detects proteins with antibodies after separation by electrophoresis.
For a further experiment, the target named is T1, HA-Nxt/p15 (UniProt Q9UKK6).
T1 sequence: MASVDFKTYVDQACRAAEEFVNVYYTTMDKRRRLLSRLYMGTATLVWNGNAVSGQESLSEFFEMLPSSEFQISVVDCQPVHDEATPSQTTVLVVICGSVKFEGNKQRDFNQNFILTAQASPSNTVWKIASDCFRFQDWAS
Described as above.

These are yes or no findings as the source states them, for the method shown. Binding seen in cells or lysates may run through a third protein. Some results given as binding are weak or reduced against the parent protein; the word gives no strength. For some assays here: Where a sequence is shown, tags or fusion partners need not be part of it.

Turning to “Nucleoporin Tpr (endogenous) (from UniProt P12270 1-2363)”, the binding entry with HA-ERK2 is “binds”; with HA-Nxt/p15, “no binding”.
